{"source": "PubChem BioAssay AID624291", "about": "(National Center for Advancing Translational Sciences (NCATS), 2012)", "note": "Out of some 350,000 compounds screened, about 220 (0.063%) were called active. The shares of active, inactive and inconclusive entries below differ from those in the screen. Calls follow the shape of the dose curve; as a rule, active = well fitted activation curve with a large enough effect; inconclusive = small, poorly fitted or top-dose-only effect; inactive = no such curve, though single readings can be large or run the other way. Potencies beside an inconclusive call are fits to weak or partial responses and may not hold up.", "data": [{"assay": "qHTS for Activators of Integrin-Mediated Alleviation for Muscular Dystrophy; also: nearly all actives have a fitted effect of over 60% in size; also: potency is read from the fitted curve at half-maximal effect;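 as to activation: 100% = response of the positive control SU9516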", "conditions": "alpha7betagal myoblasts, beta-gal FDG fluorescence, 48 h; activation: at 38.3 µM (top of the series)", "procedure,_shortened": "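Alpha7betagal+/- myoblasts (passage 13) were plated 16-24 hr, then exposed to compounds (1:260 dilution of DMSO stock) for 48 hours at 37C. After MPER lysis, β-galactosidase reporter activity was read as FDG fluorescence (ex 480/em 540) after 30 minutes.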", "values": [{"compound": "COc1ccc(C2Nc3ccccc3C(=O)N2NS(=O)(=O)c2ccc(C)cc2)c(OC)c1", "note": "(stereo unspecified)", "Potency": "inconclusive: 2.82 µM [activator, single point]"}, {"compound": "Cc1cc(=O)oc2cc(OCC(=O)N3CCN(c4ccccc4)CC3)c(Cl)cc12", "Potency": "inconclusive: 7.94 µM [activator, partial curve, poor fit]"}, {"compound": "COc1cc(/C=C2\\SC(=S)N(C(Cc3ccccc3)C(=O)O)C2=O)ccc1O", "note": "(stereo unspecified)", "activation": "inactive: -7.44%"}, {"compound": "O=C(NCCS(=O)(=O)N1CCN(c2ccccc2)CC1)C1CCCC1", "Potency": "inconclusive: 3.16 µM [activator, partial curve, poor fit]"}, {"compound": "COc1ccc(-n2ccnc2CN2CCCC(CO)(Cc3cccc(OC)c3)C2)cc1", "note": "(stereo unspecified)", "activation": "inactive: -25.1%"}, {"compound": "Cc1cc(C)nc(SCc2ccc([N+](=O)[O-])cc2)n1", "activation": "inactive: 0.252%"}, {"compound": "O=C(c1cc(COc2ccc(F)c(F)c2)on1)N1CCN(C/C=C/c2ccccc2)CC1", "Potency": "inconclusive: 2.82 µM [activator, single point]"}, {"compound": "N#C/C(=N\\Nc1cc(Cl)cc(Cl)c1)c1nnc2n1CCCCC2", "Potency": "inconclusive: 3.16 µM [activator, single point]"}, {"compound": "COc1ccc(CN(C)C(=O)c2cccc(S(=O)(=O)N3CCCc4ccccc43)c2)c(OC)c1OC", "activation": "inactive: -21.8%"}, {"compound": "CCN(CC)c1ccc(N=C2C(=O)Nc3ccccc32)cc1", "activation": "inactive: 0%"}, {"compound": "COc1cc(COc2ccc3c(C)c(CCC(=O)O)c(=O)oc3c2)cc(OC)c1OC", "Potency": "inconclusive: 28.2 µM [activator, single point]"}, {"compound": "CN(CCc1ccccn1)C(=O)CCC1CCCN(C(=O)NC2CCCCC2)C1", "note": "(stereo unspecified)", "activation": "inactive: -27.1%"}, {"compound": "O=C(COc1ccccc1/C=C\\c1[nH]c(=O)[nH]c(=O)c1[N+](=O)[O-])Nc1ccccc1", "activation": "inactive: 8.07%"}, {"compound": "Cc1cc(C)c(NC(=O)C2CCCO2)c(C)c1", "note": "(stereo unspecified)", "Potency": "inconclusive: 28.2 µM [activator, single point]"}, {"compound": "COc1cc2c(cc1OC)C(c1ccc(Br)cc1)NCC2", "note": "(stereo unspecified)", "Potency": "inconclusive: 3.16 µM [activator, single point]"}, {"compound": "O=CN1N=C(c2ccccc2)CC1c1ccc(Cl)cc1", "note": "(stereo unspecified)", "Potency": "inconclusive: 28.2 µM [activator, single point]"}, {"compound": "Cc1cccc(C)c1NC(=O)Cn1c(=O)c2cccn2c2ccccc21", "Potency": "inconclusive: 5.01 µM [activator, single point]"}, {"compound": "COC(=O)c1ccc(Nc2cc(C)nc3ccccc23)cc1", "activation": "inactive: -37.3%"}, {"compound": "Cc1nn(Cc2ccccc2Cl)c2sc(C(=O)NC(C)(C)C)cc12", "activation": "inactive: -23.9%"}, {"compound": "Cc1[nH]c2ccc(C(=O)Nc3ccncc3)cc2c1C", "Potency": "inconclusive: 2.82 µM [activator, partial curve, poor fit]"}, {"compound": "CCc1cccc(CC)c1NC(=O)COC(=O)CCc1cc(OC)c(OC)c(OC)c1", "Potency": "inconclusive: 3.16 µM [activator, partial curve, poor fit]"}, {"compound": "O=C(NCc1ccc(Cl)cc1)c1nccnc1CO", "activation": "inactive: -3.23%"}, {"compound": "CCOc1cc(CNCCCN2CCOCC2)cc(Br)c1OCC(=O)Nc1cccc(C(F)(F)F)c1", "Potency": "inconclusive: 28.2 µM [activator, single point]"}, {"compound": "O=C1CCN(Cc2cccnc2)CCN1[C@H](CO)c1ccccc1", "Potency": "inconclusive: 3.16 µM [activator, single point]"}, {"compound": "CC(NS(=O)(=O)c1ccc(Br)cc1)C(=O)NCc1ccco1", "note": "(stereo unspecified)", "activation": "inactive: 10.1%"}, {"compound": "COc1ccccc1CNC(=O)c1cc(-c2ccncc2)nc2c(Cl)cccc12", "activation": "inactive: -4.36%"}, {"compound": "CCOc1ccccc1NC(=O)CSc1ccc(-c2ccco2)nn1", "Potency": "inconclusive: 0.501 µM [activator, full curve, poor fit]"}, {"compound": "CCCNC(=O)c1ccc(COc2cccc3ccccc23)o1", "Potency": "inconclusive: 3.55 µM [activator, single point]"}, {"compound": "Cc1cn(S(=O)(=O)c2ccc(Cl)cc2)c(C)n1", "Potency": "inconclusive: 3.16 µM [activator, single point]"}, {"compound": "Cc1noc(C)c1COc1ccc(C(=O)NCCc2ccccn2)cc1", "Potency": "inconclusive: 2.82 µM [activator, full curve]"}, {"compound": "CC(=O)N1CCOc2ccc(S(=O)(=O)NCc3ccccc3Cl)cc21", "Potency": "inconclusive: 2.82 µM [activator, single point]"}, {"compound": "COc1ccccc1OCC(=O)N/N=C1\\CCCCc2ccccc21", "activation": "inactive: -14.8%"}, {"compound": "NS(=O)(=O)c1ccc(NC(=S)Nc2nn(Cc3ccc(Cl)cc3Cl)cc2Cl)cc1", "activation": "inactive: -3.44%"}, {"compound": "O=C(NC(=S)N(CCCCO)C1CCCCC1)c1sc2ccccc2c1Cl", "activation": "inactive: -53.1%"}, {"compound": "CN1C2CCC1CC(NC(=O)c1ccc([N+](=O)[O-])cc1)C2", "note": "(stereo unspecified)", "Potency": "inconclusive: 31.6 µM [activator, single point]"}, {"compound": "CCCOc1cccc(-c2cc(C(=O)NN)c3ccccc3n2)c1", "activation": "inactive: 13.6%"}, {"compound": "CC(Sc1nnc2ccccn12)C(=O)Nc1ccc(N2CCOCC2)cc1", "note": "(stereo unspecified)", "Potency": "inconclusive: 3.55 µM [activator, single point]"}, {"compound": "Nc1c(Cl)ncnc1N1CCOCC1", "activation": "inactive: 12.8%"}, {"compound": "O=C(CSc1ccc(-c2cccnc2)nn1)Nc1ccccc1", "Potency": "inconclusive: 2.82 µM [activator, full curve, poor fit]"}, {"compound": "CCOC(=O)N1CCN(CC(=O)c2ccc(O)c(C)c2O)CC1", "Potency": "inconclusive: 12.6 µM [activator, partial curve, poor fit]"}, {"compound": "O=C(CCCC(=O)N1CCCC1)N1CCCC1", "Potency": "inconclusive: 28.2 µM [activator, single point]"}, {"compound": "COc1ccccc1CCc1nnc(CCC(=O)NC(C)Cc2cccnc2)o1", "note": "(stereo unspecified)", "Potency": "inconclusive: 28.2 µM [activator, single point]"}, {"compound": "Cc1ccc(C)c(-n2nnnc2SCC(=O)Nc2cccc(-c3nnc4n3CCCCC4)c2)c1", "Potency": "inconclusive: 28.2 µM [activator, single point]"}, {"compound": "CC(C)CC(C(=O)NC(C)(C)C)N(Cc1ccccc1Cl)C(=O)c1snc(C(N)=O)c1N", "note": "(stereo unspecified)", "Potency": "inconclusive: 5.01 µM [activator, single point]"}, {"compound": "COc1cc(CNC2CCCCCCC2)cc(Cl)c1OCC(N)=O", "Potency": "inconclusive: 5.01 µM [activator, single point]"}, {"compound": "Cc1ccc(OCC(=O)N/N=C/c2cccn2C)cc1C", "Potency": "inconclusive: 1.26 µM [activator, partial curve, poor fit]"}]}]}
